Data reported in PMC12267377.
No constants are given. Whether binding was seen depends on the method and setting. Binding seen in cells or lysates may run through a third protein. Some results given as binding are weak or reduced against the parent protein; the word gives no strength. For some assays here: Tags and fused reporters may be left off the sequences shown.

T1: Wnt7a-Flag (pc-Wnt7a-Flag) (UniProt O00755)
T1 sequence: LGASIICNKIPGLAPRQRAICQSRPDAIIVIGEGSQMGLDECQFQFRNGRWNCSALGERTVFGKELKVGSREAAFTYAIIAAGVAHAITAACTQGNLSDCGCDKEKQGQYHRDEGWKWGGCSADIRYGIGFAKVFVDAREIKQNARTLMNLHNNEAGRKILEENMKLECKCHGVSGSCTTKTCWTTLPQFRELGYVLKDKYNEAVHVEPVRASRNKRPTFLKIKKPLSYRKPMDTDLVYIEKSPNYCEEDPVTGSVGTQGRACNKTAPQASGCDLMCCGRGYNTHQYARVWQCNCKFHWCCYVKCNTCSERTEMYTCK


What was measured:
[1] = target: T1, Wnt7a-Flag (pc-Wnt7a-Flag); test: co-IP; HCE-2[50.B1] cell lysate incubated with anti-Flag antibody at 4 °C overnight, protein A/G magnetic beads, western blot for CALR
[2] = target: Calreticulin (CALR) (human (endogenous in HCE-2[50.B1])) (UniProt P27797); test: co-IP; HCE-2[50.B1] cell lysate incubated with anti-CALR antibody at 4 °C overnight, protein A/G magnetic beads, western blot for Wnt7a

Molecule	binding [1]	binding [2]
Calreticulin (CALR) (from UniProt P27797 18-417)	binds	–
Wnt7a (protein, UniProt O00755 32-349) LGASIICNKIPGLAPRQRAICQSRPDAIIVIGEGSQMGLDECQFQFRNGRWNCSALGERTVFGKELKVGSREAAFTYAIIAAGVAHAITAACTQGNLSDCGCDKEKQGQYHRDEGWKWGGCSADIRYGIGFAKVFVDAREIKQNARTLMNLHNNEAGRKILEENMKLECKCHGVSGSCTTKTCWTTLPQFRELGYVLKDKYNEAVHVEPVRASRNKRPTFLKIKKPLSYRKPMDTDLVYIEKSPNYCEEDPVTGSVGTQGRACNKTAPQASGCDLMCCGRGYNTHQYARVWQCNCKFHWCCYVKCNTCSERTEMYTCK	–	binds
